Data taken from PubChem BioAssay AID248 (DTP/NCI, 2004).
The list shows only some results of the screen, not a fair sample: it is rich in T/C values a quarter to a half above the control, in often repeated tests (any T/C) and in doses without a T/C. Further doses and runs are listed elsewhere. T/C is the treated group as % of the vehicle group. Some entries give survivors of the animals treated and no T/C: the source holds a T/C of zero for them, seemingly a mark for toxic or unscored doses. Some survivor counts are full or nearly so, which does not show that the dose was tolerated: the source hardly ever lists a survival T/C far under the control, and the zero likely stands for such cases as well. Survivors were counted at the toxicity check, usually on the fifth day, unless a day is given; later deaths do not show. Schedule codes are those of the source, taken here to give the interval after Q, in days (D) or hours (H), and the number of doses after X. Where survival is the endpoint, the PubChem record calls one and a half times the control and up active, and a quarter to a half above the control has no call in these data; cut-offs in other NCI protocols can differ. Some schedule codes hold Z or #, which are not explained here.

Tested on: L1210 leukemia ip in BDF1 mice, survival T/C
Assay: NCI In Vivo Anticancer Drug Screen. Data for tumor model L1210 Leukemia (intraperitoneal) in B6D2F1 (BDF1) mice
Settings: T/C endpoint: mean survival time, higher T/C = longer survival
[1] = dose: 400.0 mg/kg/injection, schedule: Q01DX001 (ip), vehicle: saline
[2] = dose: 400.0 mg/kg/injection, schedule: Q04DX003 (ip), vehicle: saline
[3] = dose: 400.0 mg/kg/injection, schedule: Q04DX003 (ip), vehicle: saline with Tween-80

## CN(C)c1ccc2c(c1)Cc1cc(N=C3C=CC(=O)O3)ccc1-2
dose: 150.0 mg/kg/injection, schedule: Q01DX009 (ip), vehicle: acetone
  survivor count: 2 of 6
dose: 150.0 mg/kg/injection, schedule: Q04DX003 (ip), vehicle: saline
  survivor count: 5 of 6
dose: 200.0 mg/kg/injection, schedule: Q01DX001 (ip), vehicle: saline
  survivor count: 5 of 6
dose: 225.0 mg/kg/injection, schedule: Q01DX009 (ip), vehicle: acetone
  survivor count: 2 of 6
dose: 225.0 mg/kg/injection, schedule: Q04DX003 (ip), vehicle: saline
  survivor count: 3 of 6
dose: 335.0 mg/kg/injection, schedule: Q04DX003 (ip), vehicle: saline
  survivor count: 2 of 6
[1]
  survivor count: 3 of 6

## C=CN1CCCC1=O
[1]
  survivor count: 4 of 4

## O=c1cc(C[n+]2ccccc2)[nH]c(=O)[nH]1
[2]
  survivor count: 0 of 4

## O=Nc1ccc(NO)c2ccccc12
dose: 100.0 mg/kg/injection, schedule: Q04DX003 (ip), vehicle: saline with Tween-80
  survivor count: 2 of 4
dose: 200.0 mg/kg/injection, schedule: Q04DX003 (ip), vehicle: saline with Tween-80
  survivor count: 0 of 4
dose: 200.0 mg/kg/injection, schedule: Q04DX003 (ip), vehicle: saline
  survivor count: 6 of 6
[3]
  survivor count: 0 of 4
[2]
  survivor count: 5 of 6

## Clc1ccccc1OB(Oc1ccccc1Cl)Oc1ccccc1Cl
[1]
  survivor count: 1 of 4

## C[As](C)Sc1ccnc(S[As](C)C)n1
dose: 400.0 mg/kg/injection, schedule: Q01DX009 (ip), vehicle: saline with Tween-80
  survivor count: 3 of 6
[3]
  survivor count: 6 of 6

## CCN(CC)C(N)=Nc1ccc(NC(=O)c2ccc(C(=O)Nc3ccc(N=C(N)N(CC)CC)cc3)cc2)cc1
dose: 3.7 mg/kg/injection, schedule: Q01DX Z (ip), vehicle: water
  T/C: 136 % of control
dose: 13.0 mg/kg/injection, schedule: Q01DX Z (ip), vehicle: water
  T/C: 139 % of control

## CCCCn1nnc2c(NN)nc(N)nc21
dose: 100.0 mg/kg/injection, schedule: Q01DX009 (ip), vehicle: saline with Tween-80
  survivor count: 4 of 6

## O=C(Nc1ccc([N+](=O)[O-])cc1)OCC(COc1ccccc1)OC(=O)Nc1ccc([N+](=O)[O-])cc1 (stereo unspecified)
dose: 50.0 mg/kg/injection, schedule: Q01DX001 (ip), vehicle: other
  survivor count: 4 of 4

## CCOC(=O)CC(C)C(Br)(C(=O)OCC)C(=O)OCC (stereo unspecified)
dose: 400.0 mg/kg/injection, schedule: Q01DX009 (ip), vehicle: water
  survivor count: 1 of 6

## C=CCCCCCCCCCNc1cc2c3c(c1)CCCN3CCC2
dose: 0.78 mg/kg/injection, schedule: Q01DX009 (ip), vehicle: saline
  survivor count: 1 of 6
dose: 1.56 mg/kg/injection, schedule: Q04DX003 (ip), vehicle: saline
  survivor count: 2 of 6
dose: 3.12 mg/kg/injection, schedule: Q04DX003 (ip), vehicle: saline
  survivor count: 0 of 6
dose: 6.25 mg/kg/injection, schedule: Q04DX003 (ip), vehicle: saline
  survivor count: 1 of 6
dose: 12.5 mg/kg/injection, schedule: Q04DX003 (ip), vehicle: saline
  survivor count: 0 of 6
dose: 25.0 mg/kg/injection, schedule: Q04DX003 (ip), vehicle: saline
  survivor count: 0 of 6
dose: 50.0 mg/kg/injection, schedule: Q04DX003 (ip), vehicle: saline
  survivor count: 0 of 6
dose: 100.0 mg/kg/injection, schedule: Q04DX003 (ip), vehicle: alcohol
  survivor count: 0 of 6
dose: 200.0 mg/kg/injection, schedule: Q04DX003 (ip), vehicle: alcohol
  survivor count: 0 of 6
dose: 400.0 mg/kg/injection, schedule: Q04DX003 (ip), vehicle: alcohol
  survivor count: 0 of 6

## Nc1ccc(OCCNS(=O)(=O)c2cccc(S(=O)(=O)F)c2)c(Cl)c1
dose: 200.0 mg/kg/injection, schedule: Q01DX009 (ip), vehicle: saline
  survivor count: 3 of 6
[2]
  survivor count: 4 of 6

## COc1cc2cc3c4cc(OC)c(OC)cc4cc[n+]3c(/C=C/c3cccc([N+](=O)[O-])c3)c2cc1OC
dose: 400.0 mg/kg/injection, schedule: Q04DX002 (ip), vehicle: other
  T/C: 143 % of control
dose: 800.0 mg/kg/injection, schedule: Q04DX002 (ip), vehicle: carboxymethylcellulose (CMC)
  survivor count: 2 of 6
